For 2 substances, binding results are on record in doi:10.1101/2025.01.13.632856.

Protein sequences, listed by entry. Tags and fused reporters are not part of them. Residues count along the entry.
UniProt P35916, residues 25-1363: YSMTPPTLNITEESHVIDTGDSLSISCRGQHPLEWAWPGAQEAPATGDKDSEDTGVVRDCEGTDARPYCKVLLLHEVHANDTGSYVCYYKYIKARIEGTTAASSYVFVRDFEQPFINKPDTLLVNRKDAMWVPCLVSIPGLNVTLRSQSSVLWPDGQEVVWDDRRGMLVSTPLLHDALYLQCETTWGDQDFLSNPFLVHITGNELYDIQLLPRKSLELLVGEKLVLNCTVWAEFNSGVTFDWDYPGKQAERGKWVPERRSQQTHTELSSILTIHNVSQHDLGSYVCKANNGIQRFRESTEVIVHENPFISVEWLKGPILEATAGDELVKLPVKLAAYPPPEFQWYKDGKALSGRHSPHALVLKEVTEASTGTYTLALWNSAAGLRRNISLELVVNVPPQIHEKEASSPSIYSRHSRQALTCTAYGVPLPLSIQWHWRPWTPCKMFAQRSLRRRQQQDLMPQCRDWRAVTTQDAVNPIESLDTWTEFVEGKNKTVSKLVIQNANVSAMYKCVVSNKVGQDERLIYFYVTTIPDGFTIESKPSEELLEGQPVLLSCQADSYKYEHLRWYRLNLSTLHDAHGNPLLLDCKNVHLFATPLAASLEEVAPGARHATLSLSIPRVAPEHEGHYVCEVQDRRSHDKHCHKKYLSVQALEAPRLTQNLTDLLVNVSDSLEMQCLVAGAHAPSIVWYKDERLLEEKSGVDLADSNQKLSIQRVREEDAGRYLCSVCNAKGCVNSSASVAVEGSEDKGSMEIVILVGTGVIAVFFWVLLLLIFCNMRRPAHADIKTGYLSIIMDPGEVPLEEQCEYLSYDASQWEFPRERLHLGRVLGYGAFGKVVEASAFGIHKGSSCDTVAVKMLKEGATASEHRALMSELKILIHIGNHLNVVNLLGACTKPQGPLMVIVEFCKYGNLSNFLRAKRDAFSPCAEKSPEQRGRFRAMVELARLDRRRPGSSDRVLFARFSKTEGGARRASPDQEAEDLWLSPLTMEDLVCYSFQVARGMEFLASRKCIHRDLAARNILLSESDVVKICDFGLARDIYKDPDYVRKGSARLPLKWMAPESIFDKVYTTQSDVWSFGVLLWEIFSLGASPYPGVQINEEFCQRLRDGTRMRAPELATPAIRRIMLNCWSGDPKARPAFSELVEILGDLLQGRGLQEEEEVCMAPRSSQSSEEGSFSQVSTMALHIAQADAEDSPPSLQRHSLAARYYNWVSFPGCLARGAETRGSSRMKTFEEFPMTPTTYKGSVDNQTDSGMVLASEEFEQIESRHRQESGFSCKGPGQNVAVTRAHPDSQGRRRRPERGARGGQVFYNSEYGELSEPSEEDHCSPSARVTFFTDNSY

Results are given in words; binding and its absence hold for the method and conditions named. Binding seen in cells or lysates may run through a third protein. Some results given as binding are weak or reduced against the parent protein; the word gives no strength. For some assays here: Sequences can lack the tags named with a protein.

In one assay the target is T1, Flag-tagged SGLT1 (UniProt P13866).
T1 sequence: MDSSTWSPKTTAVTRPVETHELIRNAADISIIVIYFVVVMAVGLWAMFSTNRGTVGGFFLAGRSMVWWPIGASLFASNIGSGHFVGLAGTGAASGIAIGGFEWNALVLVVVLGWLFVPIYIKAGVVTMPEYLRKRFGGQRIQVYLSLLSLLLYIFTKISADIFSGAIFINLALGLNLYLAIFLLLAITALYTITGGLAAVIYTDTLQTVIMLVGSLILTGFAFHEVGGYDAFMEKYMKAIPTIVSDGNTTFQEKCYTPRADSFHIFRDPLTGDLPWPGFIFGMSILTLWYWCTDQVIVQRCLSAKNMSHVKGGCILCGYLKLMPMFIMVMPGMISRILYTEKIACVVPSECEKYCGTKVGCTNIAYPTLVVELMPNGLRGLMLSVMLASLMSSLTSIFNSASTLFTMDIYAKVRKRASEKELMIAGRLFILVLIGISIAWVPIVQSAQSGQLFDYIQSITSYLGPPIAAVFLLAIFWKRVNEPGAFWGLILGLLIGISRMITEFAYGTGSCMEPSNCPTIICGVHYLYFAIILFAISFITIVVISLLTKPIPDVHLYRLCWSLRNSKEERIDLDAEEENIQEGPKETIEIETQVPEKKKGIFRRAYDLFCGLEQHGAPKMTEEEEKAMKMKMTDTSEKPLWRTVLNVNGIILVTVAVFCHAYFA
In words: co-IP.

The target in assay [1] is T2, SGLT1 (endogenous, JHH-7 cells) (human (endogenous in JHH-7)) (UniProt P13866).
T2 sequence: T1 sequence
In words: co-IP.

Take “HA-tagged VEGFR3 (from UniProt P35916 25-1363) (receptor)”: in the assay with Flag-tagged SGLT1, the binding result is reported as “binds”.
With “VEGFR3 (endogenous, JHH-7 cells) (from UniProt P35916 25-1363) (receptor)”, the binding result in assay [1] was “binds”.
